Measurements as given in publication PMC8895442.

Target: Flag-PTEN (phosphatase and tensin homolog deleted on chromosome ten) (UniProt P60484)
Assay: affinity purification with mass spectrometry; 293T cells transfected with Flag-PTEN; PTEN immunoprecipitated with anti-PTEN antibody and protein A+G agarose at 4 °C; LC-MS/MS; IgG control; n = 1

B1: ubiquitin-specific peptidase 22 (USP22) (enzyme, UniProt Q9UPT9 1-525)
chain: MVSRPEPEGEAMDAELAVAPPGCSHLGSFKVDNWKQNLRAIYQCFVWSGTAEARKRKAKSCICHVCGVHLNRLHSCLYCVFFGCFTKKHIHEHAKAKRHNLAIDLMYGGIYCFLCQDYIYDKDMEIIAKEEQRKAWKMQGVGEKFSTWEPTKRELELLKHNPKRRKITSNCTIGLRGLINLGNTCFMNCIVQALTHTPLLRDFFLSDRHRCEMQSPSSCLVCEMSSLFQEFYSGHRSPHIPYKLLHLVWTHARHLAGYEQQDAHEFLIAALDVLHRHCKGDDNGKKANNPNHCNCIIDQIFTGGLQSDVTCQVCHGVSTTIDPFWDISLDLPGSSTPFWPLSPGSEGNVVNGESHVSGTTTLTDCLRRFTRPEHLGSSAKIKCSGCHSYQESTKQLTMKKLPIVACFHLKRFEHSAKLRRKITTYVSFPLELDMTPFMASSKESRMNGQYQQPTDSLNNDNKYSLFAVVNHQGTLESGHYTSFIRQHKDQWFKCDDAIITKASIKDVLDSEGYLLFYHKQFLEYE
Q: How did the binding turn out when B1 was run?
A: binds

Results are given in words; binding and its absence hold for the method and conditions named. In cells and extracts the contact can be indirect. Here binding means that the protein was enriched with, or labelled near, the bait; the list need not be complete.
